Values from PubChem BioAssay AID504786 (Drosophila RNAi Screening Center, 2011)

- Assay: 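Fly genes required for HIF-dependent transcription when hypoxia is mimicked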 (primary screen)
- Cells: Drosophila S2 cells with a stable HIF luciferase reporter
- Knock-down reagent: long dsRNA against Drosophila genes, about 0.2 µg dsRNA per well of a 384-well plate
- Duration: three days of knock-down, then 20 h of DFO before reading
- Treatment: desferrioxamine (DFO) at 100 µM, an iron chelator that mimics hypoxia, for 20 h
- Read-out: 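Firefly luciferase driven by the mouse ldh-a hypoxia-response element, measured after 20 h of 100 µM DFO; z-scores per plate, higher means more signal lost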
- Direction: z-score: higher = stronger loss of HIF reporter signal
The screen tested about 21,000 reagents; this is an unselected part of those that have a named target and a result. 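Primary screen; positive scores mean lost reporter signal, so the sign may be inverted from the usual convention.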 The numbers tell different reagents against one gene apart. Names joined by + are all predicted targets of the reagent. Not all columns of the deposit are shown.

predicted target | reagent | z-score, replicate 1 | z-score, replicate 2 | z-score, replicate 3
Prps | 1 | 1.4 | 1.7 | –
Prps | 2 | 0.5 | 1.1 | –
Prps | 3 | 0.2 | 0.6 | –
wash | 1 | -0.3 | -0.5 | –
Su(Tpl) | 1 | 2.8 | 2.2 | –
CG16786 | 1 | -0.1 | -0.6 | –
CG5435 | 1 | -0.3 | -0.1 | –
Oatp33Eb | 1 | -0.2 | 0 | –
Klp31E | 1 | -0.2 | -0.6 | –
CG34354 | 1 | 0 | -0.1 | –
CG34354 | 2 | 0 | -0.9 | –
CG34354 | 3 | 4.3 | 0.1 | –
CG34354 | 4 | -0.4 | -0.5 | –
CG31948 | 1 | 0 | 0.1 | –
CG15580 | 1 | -0.3 | -0.2 | –
Set | 1 | -0.3 | -0.3 | –
CG9813 | 1 | 0.2 | 0.6 | –
Cbp80 | 1 | 1.4 | 1.9 | –
Alp10 | 1 | -0.4 | 0.6 | –
Traf6 | 1 | -0.2 | -0.6 | –
CG13059 | 1 | -0.2 | -0.4 | –
alpha-Est9 | 1 | -0.4 | -0.3 | –
Hsc70-1 | 1 | 2 | 2 | –
Dyrk2 | 1 | -0.4 | -0.1 | –
Ptp69D | 1 | -0.4 | -0.6 | –
msl-1 | 1 | 0.5 | 1 | –
Fad2 | 1 | -0.3 | -0.5 | –
Edg84A | 1 | -0.4 | -0.2 | –
CG33258 | 1 | -0.1 | 0 | –
CkIIalpha-i1 | 1 | -0.3 | -0.2 | –
CG8329 | 1 | -0.4 | -0.7 | –
CG14200 | 1 | -0.3 | 0 | –
CG5790 | 1 | -0.3 | -0.7 | –
bug | 1 | -0.3 | -0.5 | –
ssp7 | 1 | -0.3 | -0.1 | –
CG18301 | 1 | -0.3 | -0.3 | –
kl-3 (retired record) | 1 | 0.2 | -0.1 | –
kl-3 (retired record) | 2 | -0.2 | -0.5 | –
kl-3 (retired record) | 3 | 0.4 | -0.1 | –
CG11788 | 1 | -0.3 | -0.5 | –
Ance-3 | 1 | -0.3 | -0.5 | –
Ance-3 | 2 | -0.3 | -0.3 | –
hppy | 1 | -0.3 | -0.3 | –
hppy | 2 | -0.3 | 0.3 | –
hppy | 3 | -0.2 | -0.7 | –
HtrA2 | 1 | -0.1 | -0.2 | –
Ugt303B2 | 1 | -0.6 | -1 | –
Coq4 + frc | 1 | 0.1 | -0.3 | –
Coq4 + frc | 2 | -0.1 | -0.1 | –
CG7110 | 1 | -0.3 | -0.4 | –
CG7110 | 2 | -0.3 | -0.5 | –
CG11275 | 1 | -0.2 | -0.2 | –
CG15203 | 1 | -0.3 | -1.2 | –
CG6184 | 1 | 0.3 | 0.3 | –
CG4382 | 1 | -0.3 | -0.5 | –
Taf4 | 1 | 0.9 | 1 | –
tef | 1 | -0.2 | -0.1 | –
Tektin-C | 1 | 3.6 | 3 | –
osa | 1 | 0.9 | 1 | –
ect | 1 | -0.3 | -0.7 | 0
ect | 2 | -0.2 | -0.5 | –
Pgam5-2 | 1 | -0.2 | -0.1 | –
CG13044 | 1 | -0.3 | -0.2 | –
CycT | 1 | 2.9 | 4.2 | –
Ncoa6 | 1 | 2.1 | 2.9 | –
CG12539 | 1 | -0.2 | -0.9 | –
CG5500 | 1 | -0.3 | 0.1 | –
sens-2 | 1 | -0.4 | -0.3 | –
sens-2 | 2 | -0.4 | -0.1 | –
Rbbp5 | 1 | -0.4 | -0.5 | –
CG13032 | 1 | -0.3 | -0.4 | –
Rpn8 | 1 | 5.6 | 6.5 | –
Sur-8 | 1 | -0.4 | -0.6 | –
cnc | 1 | -0.4 | -0.6 | –
cnc | 2 | -0.1 | 0.1 | –
cnc | 3 | -0.3 | 0.2 | –
cnc | 4 | -0.3 | -0.3 | –
Zaf1 | 1 | -0.3 | -0.5 | –
Bap55 | 1 | 0 | -0.4 | –
CG7550 | 1 | -0.3 | -0.3 | –
Or33b | 1 | 0 | -0.4 | –
Dhc62B | 1 | -0.2 | -0.3 | –
CG31769 | 1 | 1.3 | -0.4 | –
CG6696 | 1 | -0.7 | 0 | –
neo | 1 | -0.3 | -0.7 | –
Gabat | 1 | -0.3 | -0.3 | –
CG42568 + DnaJ-60 | 1 | -0.1 | 0.1 | –
CG42568 + DnaJ-60 | 2 | -0.4 | -0.6 | –
Uros1 | 1 | -0.3 | -0.6 | –
Hsepi | 1 | -0.3 | -0.3 | –
PPP1R15 | 1 | -0.3 | -0.4 | –
RpL22 | 1 | -0.3 | -0.6 | 5.4
mat | 1 | -0.3 | -0.6 | –
corolla | 1 | -0.3 | -0.2 | –
Flacc | 1 | -0.5 | -0.2 | –
Phf5a | 1 | 0.9 | 0.9 | –
TotM | 1 | -0.2 | 0.8 | –
CG9171 | 1 | -0.3 | -0.4 | –
Nepl16 | 1 | -0.3 | -0.5 | –
CG42820 + CG42819 | 1 | -0.4 | -0.1 | –
CG42820 + CG42819 | 2 | -0.2 | -0.4 | –
shakB | 1 | 0 | 0.5 | –
shakB | 2 | -0.1 | 0 | –
metro | 1 | -0.3 | -0.4 | –
metro | 2 | -0.1 | -0.1 | –
CG33770 | 1 | -0.1 | -0.3 | –

An excerpt from the list above:
predicted target | reagent | z-score, replicate 1 | z-score, replicate 2 | z-score, replicate 3
CG31948 | 1 | 0 | 0.1 | –
CG15580 | 1 | -0.3 | -0.2 | –
Set | 1 | -0.3 | -0.3 | –
CG9813 | 1 | 0.2 | 0.6 | –
Cbp80 | 1 | 1.4 | 1.9 | –
Alp10 | 1 | -0.4 | 0.6 | –
Traf6 | 1 | -0.2 | -0.6 | –
CG13059 | 1 | -0.2 | -0.4 | –
alpha-Est9 | 1 | -0.4 | -0.3 | –
Hsc70-1 | 1 | 2 | 2 | –
Dyrk2 | 1 | -0.4 | -0.1 | –
Ptp69D | 1 | -0.4 | -0.6 | –
msl-1 | 1 | 0.5 | 1 | –
Fad2 | 1 | -0.3 | -0.5 | –
Edg84A | 1 | -0.4 | -0.2 | –
CG33258 | 1 | -0.1 | 0 | –
